Measurements taken from US20230270754A1, “COMBINATION THERAPY FOR INHALATION ADMINISTRATION” (Chemo Research, S.L., priority 2020, published 2023).
For at least one compound, name, drawing or mass did not settle the structure.

Key:
Type in all cases: physicochemical
[1] = APSD by NGI, Example 5 Symbicort pMDI vs soft mist inhaler
Protocol: The in vitro aerodynamic particle size distribution of both formulations was evaluated using an impactor, the next generation impactor, NGI (Copley Scientific Ltd) equipped with a mouthpiece adapter for the insertion of the inhaler, an induction port and an internal filter holder (IFH) to capture the smaller particles. The product was tested as per procedure detailed in the European and US Pharmacopoeia for Soft Mist Inhalers and pMDIs.
(§1) The NGI was cooled to 5° C. for at least 75 min. The cooling chamber was then opened and, after 30 minutes, the NGI was connected to a HCP5 vacuum pump (Copley Scientific Ltd). For each experiment, ten doses were discharged per NGI actuated at 28.3 L/min for 5 seconds each.
After the required actuations, the particles deposited on the different surfaces of the impactor were extracted using a suitable diluent (75/25 v/v MeOH/water) and with the help of a Gentle Rocker (Copley Scientific Ltd). Active ingredients were then quantified by HPLC, with the same methods described in example 4.
Data analysis. The NGI was plotted against the stage cut-off diameter as the mass recovered from the induction port to the filter. Fine particle fraction (FPF %), and mass median aerodynamic diameter (MMAD) were determined from the analysis of the NGI data.
(§2) Results are expressed as the mean value of two NGIs analysis.

[2] = APSD by NGI, Example 4 budesonide/formoterol 70% vs 96% ethanol, soft mist inhaler
Protocol: Typical System Suitability Criteria applies as per USP <621> requirements.
For the APSD evaluation Formulation 1 and 2 were filled into cartridges compatible with a soft mist inhaler (Respimat®). The in vitro aerodynamic particle size distribution of both formulations was evaluated using an impactor, the next generation impactor, NGI (Copley Scientific Ltd) equipped with a mouthpiece adapter for the insertion of the inhaler, an induction port and an internal filter holder (IFH) to capture the smaller particles. The product was tested as per procedure detailed in the European pharmacopoeia chapter 2.9.18 (apparatus E) and US Pharmacopeia chapter <601> (apparatus 6) for Soft Mist Inhalers.
as §1
After the required actuations, the particles deposited on the different surfaces of the impactor were extracted using a suitable diluent (75/25 v/v MeOH/water) and with the help of a Gentle Rocker (Copley Scientific Ltd). Active ingredients were then quantified by HPLC as described above.
(§3) Data analysis. The NGI results were plotted against the stage cut-off diameter as the mass recovered from the induction port to the filter. Fine particle fraction (FPF %), mass median aerodynamic diameter (MMAD), fine particle dose (FPD) were determined from the analysis of the NGI data.
as §2

[3] = Active ingredient content after filtration (assay by Reverse Phase HPLC), Example 1; conditions: triple combination BDP/GB/FF
Protocol: Both formulations were filtrated, and individual assay of all active ingredients were tested by Reverse Phase HPLC.
Three independent Reverse Phase HPLC analytical methods were used for the determination of each active ingredient in all the analyses.

[4] = Delivered dose by dose unit sampling apparatus (DUSA), Example 2
Description: Active pharmaceutical ingredients (APIs) deposited in the sampling apparatus were quantitatively recovered with a DUSA shaker (Copley Scientific Ltd) and methanol. APIs were, then, quantified by HPLC with the same methods described in Example 1.
Results are expressed as the average of 5 measurements.

[5] = APSD by NGI, Example 2 Trimbow pMDI vs soft mist inhaler
Protocol: The in vitro aerodynamic assessment was carried using a next generation impactor, NGI (Copley Scientific Ltd), equipped with a mouthpiece adapter for the insertion of the inhaler, an induction port and an internal filter holder (IFH) to capture the smaller particles. The product was tested as per procedure detailed in the European pharmacopoeia chapter 2.9.18 (apparatus E) and US Pharmacopeia chapter <601> (apparatus 6) for Soft Mist Inhalers.
The NGI was cooled to 5° C. for at least 75 min. The cooling chamber was then opened and, after 30 minutes, the NGI was connected to a HCP5 vacuum pump (Copley Scientific Ltd). […]
After the required actuations, the particles deposited on the different surfaces of the impactor were extracted using a suitable diluent (methanol) and with the help of a Gentle Rocker (Copley Scientific Ltd).
as §3, §2

[6] = Soft Mist Inhaler (1 actuation), budesonide/formoterol in 96% ethanol
[7] = Soft Mist Inhaler (1 actuation), triple combination in 96% ethanol

Structure (SMILES): CCCC1O[C@@H]2C[C@H]3[C@@H]4CCC5=CC(=O)C=C[C@]5(C)[C@H]4[C@@H](O)C[C@]3(C)[C@]2(C(=O)CO)O1 (stereo partly shown) [Budesonide]
- FPF (%) [1, 6]: 89.2%
- MMAD (μm) [1, 6]: 1.1 μm
- FPF (%) ([1]; Symbicort pMDI (1 actuation)): 49.7%
- MMAD (μm) ([1]; Symbicort pMDI (1 actuation)): 3.7 μm
- FPD ([2]; Formulation 1 (70% EtOH)): 119.1 µg
- FPF ([2]; Formulation 1 (70% EtOH)): 68.5%
- MMAD ([2]; Formulation 1 (70% EtOH)): 2.6 μm
- FPF ([2]; Formulation 2 (96% EtOH)): 89.2%
- MMAD ([2]; Formulation 2 (96% EtOH)): 1.1 μm
- FPF ([2]; Formulation 2 (96% EtOH), column in μg): 141.0 µg

Structure (SMILES): C[N+]1(C)CCC(OC(=O)C(O)(c2ccccc2)C2CCCC2)C1 (stereo not shown) [Glycopyrronium Bromide, 3-(2-cyclopentyl-2-hydroxy-2-phenylacetoxy)-1,1-dimethylpyrrolidinium]
- Formulation 1 Assay (%) active ingredient content compared to the theoretical amount ([3]; Formulation 1: 70% Ethanol): 99.9%
- Formulation 2 Assay (%) active ingredient content compared to the theoretical amount ([3]; Formulation 2: 96% Ethanol): 101.0%
- DUSA (μg) delivered dose ([4]; Soft Mist Inhaler (Respimat) 1 actuation, triple combination in 96% ethanol): 12.3 µg
- DUSA (μg) delivered dose ([4]; Trimbow pMDI 1 actuation): 11.1 µg
- FPD [5, 7]: 12.0 µg
- FPF [5, 7]: 86.7%
- IP (induction port deposition) [5, 7]: 9.0%
- MMAD [5, 7]: 1.3 μm
- FPD ([5]; Trimbow pMDI (2 actuations)): 10.6 µg
- FPF ([5]; Trimbow pMDI (2 actuations)): 43.4%
- IP (induction port deposition) ([5]; Trimbow pMDI (2 actuations)): 54.2%
- MMAD ([5]; Trimbow pMDI (2 actuations)): 1.2 μm
